# In PubChem BioAssay AID1347431 (National Center for Advancing Translational Sciences (NCATS), 2020):
# Fewer than 10 of roughly 1,200 compounds were called active. The call rests on the fitted dose curve; in most records, active means well fitted curve in the direction sought with a large enough effect; inconclusive means small, poorly fitted or top-dose-only effect, or another doubt; inactive means no such curve, though single readings can be large or run the other way. Some of the results follow.
# Experiment: Confirmatory qHTS assay for inhibitors of Activation Induced Cytidine Deaminase (AID): UDG signals; further: 0% is about no effect
# Conditions: UDG coupled enzyme activity counter-screen; at 115 µM (top of the series) unless noted
# How it was run: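 Fluorescence at 560 nm excitation/665 nm emission reports UDG activity, read after NaOH quench of a 4 h room-temperature reaction of DJC20/DJC23 substrates with AID (1 uM, 4/3x) and UDG (2 U/mL, 4/3x); compounds at 7.32 nM - 114 uM final, preincubated 10 min.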
row,Structure (SMILES),"activity change, negative = inhibition"
1,CCc1nnc2c(N3CCN(c4cccc(C)c4)C(C)C3)nc3ccccc3n12 (configuration not stated),inactive: -8.85%
2,Cc1ccc(C(=O)N(Cc2ccco2)Cc2sccc2C)cc1,inactive: -1.66%
3,COc1ccc(-c2nc3c(c(SCC(=O)Nc4cccc(O)c4)n2)Cc2c(CO)cnc(C)c2O3)cc1,inactive: -11.6%
4,COc1cc(Cn2c(=O)oc3ccc(C)cc32)ccc1OCCC(C)C,inactive: 0.453%
5,CCC(Sc1nc2c(sc3ccccc32)c(=O)n1CCc1ccc(OC)c(OC)c1)C(=O)N(CC)CC (configuration not stated),inactive: -0.348%
6,Cc1ccc(-c2cn3c(n2)sc2cc(C(=O)NCCCN4CCCCCC4)ccc23)cc1,inactive: 3.32%
7,CSc1nc(NCCOC(C)=O)c(C#N)c(-c2ccc(C(C)(C)C)cc2)n1,inactive: -15.1%
8,Cc1cc(C)cc(-n2ccnc2SCC(=O)Nc2cccc3ccccc23)c1,inactive: -7.88%
9,Cc1nc2cc(-c3ccccc3)nn2c(C)c1CCC(=O)N1CCN(c2ccc(F)cc2)CC1,inactive: -8.14%
10,Cc1cccc(-n2ccnc2SCC(=O)Nc2cccc3ccccc23)c1,inactive: -3%
11,O=C(Nc1cc(-c2ccccc2)sc1C(=O)O)c1cccc(F)c1,inactive: -3.22%
12,CCn1cc(C(=O)NCCCN2CCC(C)CC2)c(=O)c2cc(S(=O)(=O)N(C)C3CCCCC3)ccc21,inactive: -2.22%
13,Cc1cccc(-c2nc3c(cnn3-c3ccccc3)c(=O)n2-c2cccc(Cl)c2)c1,inactive: -7.85%
14,CC(C)(C)OC(=O)N1CCC(c2c(C(=O)Nc3ccc4c(c3)OCCO4)cnn2-c2ccc(F)cc2)CC1,inactive: -12.2%
15,Cc1ccc2nc(NS(=O)(=O)c3ccc(Cl)cc3)c(Nc3ccc(C(=O)O)cc3)nc2c1,inactive: -2.11%
16,CCC1CCCCN1C(=O)CSc1nc2c([nH]c3ccccc32)c(=O)n1-c1cccc(OC)c1 (configuration not stated),inactive: -3.26%
17,Cc1ccc(Cl)cc1Nc1nn2c(=O)c3ccc(C(=O)NCc4cccs4)cc3nc2s1,inactive: 2.68%
18,Cc1nc2nc(SCC(=O)NCc3ccccc3)nn2c(C)c1Cc1ccccc1Cl,inactive: -8.71%
19,COc1ccc(-c2nc3nc(C)cc(Nc4ccc(C(C)=O)cc4)n3n2)cc1,inactive: 2.35%
20,COc1ccc(-c2cc(C(=O)Oc3ccccc3)c3cc(C)ccc3n2)cc1,inactive: 1.31%
21,Cc1nc2nc(NC(=O)c3cccc(Cl)c3)[nH]n2c(=O)c1Cc1ccccc1,inactive: -8.15%
22,COc1ccc(-c2nc3c(c(SCC(=O)Nc4ccc(C(=O)O)cc4)n2)Cc2ccccc2O3)cc1,inactive: 5.87%
23,O=C(c1noc2c1CCCCC2)N1CCN(c2ccc(Cl)cc2)CC1,inactive: 4.95%
24,Cn1c(=O)c2c(-c3ccc(Br)cc3)n(CCc3ccccc3)cc2n(C)c1=O,inactive: -1.72%
25,CCc1ccc(OCC(=O)N(Cc2ccco2)Cc2ccccc2Cl)cc1,inactive: -3.43%
26,CCn1cc2nc(SCc3cccc(C(F)(F)F)c3)n(Cc3ccc(C)cc3)c(=O)c2n1,inactive: -5.91%

# Sorted by count of non-hydrogen atoms (rising): some entries from above
row,Structure (SMILES),"activity change, negative = inhibition"
23,O=C(c1noc2c1CCCCC2)N1CCN(c2ccc(Cl)cc2)CC1,inactive: 4.95%
7,CSc1nc(NCCOC(C)=O)c(C#N)c(-c2ccc(C(C)(C)C)cc2)n1,inactive: -15.1%
1,CCc1nnc2c(N3CCN(c4cccc(C)c4)C(C)C3)nc3ccccc3n12 (configuration not stated),inactive: -8.85%
6,Cc1ccc(-c2cn3c(n2)sc2cc(C(=O)NCCCN4CCCCCC4)ccc23)cc1,inactive: 3.32%

# (further entries)

row,Structure (SMILES),"activity change, negative = inhibition"
1,CCOC(=O)c1cnc2c(Cl)cc(Cl)cc2c1Nc1cc(C(=O)O)ccc1C,inactive: 6.19%
2,CCCn1c(SCc2nc(-c3ccccc3OCC)no2)nnc1-c1ccc(Cl)cc1,inactive: -14.3%
3,CN(c1ccc(F)cc1)S(=O)(=O)N1CCCC(C(=O)NCc2cccc(Br)c2)C1 (configuration not stated),inactive: -8.48%
4,Cc1ccccc1Cc1c(C)nc2nc(SCC(=O)N(C)c3ccccc3)nn2c1C,inactive: -11.5%
5,CCc1cnc2c(c1SCc1ccccc1C)c(=O)n(C)c(=O)n2C,inactive: -4.03%
6,O=C(C1CCC(Cn2c(=O)c3sccc3n(Cc3ccccc3)c2=O)CC1)N1CCCCC1 (configuration not stated),inactive: -7.59%
7,O=C1c2ccccc2C(=O)C1(c1ccccc1)N1CCN(c2cccc(C(F)(F)F)c2)CC1,inactive: 4.62%
8,Cc1oc(-c2ccccc2Cl)nc1CS(=O)(=O)CC(=O)NC(C)CCc1ccccc1 (configuration not stated),inactive: -16.7%
9,Cc1ccc(S(=O)(=O)c2nnn3c2nc(N2CCCCC2)c2sccc23)cc1,inactive: -1.37%
10,Cc1ccc(C(=O)/C=C/c2cn(CC(O)CN3CCCCCC3)c3ccccc23)cc1 (configuration not stated),inactive: -5.21%
11,CC(=O)Nc1ccc(S(=O)(=O)Nc2nc3n(n2)C(c2ccccc2)C=C(c2ccc(Cl)cc2)N3)cc1 (configuration not stated),inactive: 6.59%
12,COc1ccccc1CN(Cc1ccco1)c1cnc(S(C)(=O)=O)nc1C(=O)Nc1ccccc1Cl,inactive: -5.35%
13,COc1ccc(C(=O)c2cn(Cc3cccc(C)c3)c3cc4c(cc3c2=O)OCCO4)cc1OC,inactive: 3.22%
14,Cc1nnc2c3ccccc3nc(N3CCN(c4cccc(Cl)c4)CC3)n12,inactive: -13.2%
15,CCN(C(=O)CSc1nc(-c2ccccc2)no1)c1cccc(C)c1,inactive: 7.11%
16,Cc1cccc(Cn2cc(C(=O)c3ccccc3)c(=O)c3cc4c(cc32)OCO4)c1,inactive: -2.38%
17,O=C(NCC(c1ccccc1)c1ccccc1)c1nn(-c2ccccc2Cl)nc1CO,inactive: -13.5%
18,COc1cc(OC)c(N(C)C(=O)c2nn(C)c3c2CSc2ccccc2-3)cc1Cl,inactive: -8.43%
19,Cn1c(SCc2ccc(F)cc2)nc2ccc(C(=O)NCc3ccc(F)cc3)cc21,inactive: -0.557%
20,CCOc1ccccc1NC(=O)CSc1nccn1-c1ccc(Cl)cc1,inactive: -6.79%
21,CCOc1ccc(CNC(=O)c2c(C)nn(-c3ccc(F)cc3)c2-n2cccc2)cc1,inactive: 6.32%
22,Cc1nc2nc(NC(=O)c3ccc(Cl)cc3)[nH]n2c(=O)c1Cc1ccccc1,inactive: -3.47%
23,CCc1ccc(NC(=O)CSc2nc(=O)n(Cc3ccco3)c3c2CCC3)cc1,inactive: 2.29%
24,Cc1nc2ccccc2n1CCc1nc2c3ccccc3nc(SCC(=O)Nc3ccc(C(C)C)cc3)n2n1,inactive: -1.98%
25,CCCCn1c(-c2ccc(C)cc2)c(C)n2c3c(=O)n(C)c(=O)n(C)c3nc12,inactive: -8.55%
26,CCOC(=O)c1c(C)oc2nc(C)nc(NC(C)c3ccccc3)c12 (configuration not stated),inactive: 2.44%
